# PubChem BioAssay AID624297 (National Center for Advancing Translational Sciences (NCATS), 2012)
# Screen size: about 340,000 compounds; about 6,200 (1.8%) were called active. The inconclusive results got no clear call from the source; some entries with a clear call stand among them for comparison. Calls come from the whole dose curve; as a rule, active = well fitted activation curve with a large enough effect; inconclusive = small, poorly fitted or top-dose-only effect; inactive = no such curve, though single readings can be large or run the other way. Potencies beside an inconclusive call are fits to weak or partial responses and may not hold up.
# Assay: A quantitative high throughput screen for small molecules that induce DNA re-replication in SW480 colon adenocarcinoma cells. For re-replication activation: % of control where 0% means no effect. Note: nearly all actives have a fitted effect of over 55% in size.
# Details: Hoechst DNA content imaging, 48 h; re-replication activation: at 46.1 µM (top of the series)
# Method in brief: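 Compounds, transferred as 23 nL by pin tool, were incubated with cells for 48 hr; DNA content per nucleus was then quantified by Hoechst staining and fluorescence plate imaging.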
# Potency is the fitted concentration of half-maximal effect.
Structure (SMILES),re-replication activation,Potency
Cc1ccc(-c2csc(NC(=O)CCNC(=O)c3ccco3)n2)cc1,inactive: -2.17%,–
CCSc1nnc(NC(=O)C2CC2c2ccccc2)s1 (configuration not stated),–,"inconclusive: 35.5 µM [activator, single point]"
Cc1ccc(C(C(=O)NC2CCCCC2)N(C(=O)Cc2c[nH]c3ccccc23)c2ccccc2C)o1 (configuration not stated),–,"inconclusive: 29.1 µM [activator, partial curve, poor fit]"
COc1cc(C(=O)OCc2ccc(C)cc2)cc(NC(=O)c2cccs2)c1OC,–,"inconclusive: 20.6 µM [activator, single point]"
O=C(Cc1c(F)cccc1Cl)N1CCN(S(=O)(=O)c2cccs2)CC1,inactive: -12.2%,–
N#Cc1ccc(/C=C/C(=O)c2ccco2)cc1,–,"inconclusive: 9.2 µM [activator, partial curve, poor fit]"
COc1ccccc1-c1cc(C(F)(F)F)nc(S(=O)(=O)CCCC(=O)N2CCCCC2C)n1 (configuration not stated),–,"inconclusive: 3.26 µM [activator, full curve, poor fit]"
O=[N+]([O-])c1ccc(Oc2cccc3cccnc23)c([N+](=O)[O-])c1,–,"inconclusive: 29.1 µM [activator, single point]"
O=C(COC(=O)c1n[nH]c2ccccc12)c1ccc(F)c(F)c1,–,"inconclusive: 0.116 µM [activator, full curve, poor fit]"
Cc1csc2nc(O)c(C(=O)NCc3ccc4c(c3)OCO4)c(=O)n12,–,"inconclusive: 18.4 µM [activator, partial curve, poor fit]"
Cc1ccccc1NC(=S)NCc1ccc2[nH]c3c(c2c1)CCCC3,–,"inconclusive: 29.1 µM [activator, single point]"
COc1c(C(=O)Nc2ccc3[nH]c(=O)[nH]c3c2)cc2ccccc2c1Br,–,"inconclusive: 5.17 µM [activator, partial curve, poor fit]"
O=C1CCCCCCCN1Cc1ccccc1,inactive: 11.4%,–
CCOCCc1nnc(NC(=O)CCS(=O)(=O)c2ccccc2)s1,–,"inconclusive: 16.4 µM [activator, single point]"
COc1ccc(S(=O)(=O)N(CC(=O)NCC2CCCO2)Cc2ccccc2)cc1C (configuration not stated),–,"inconclusive: 29.1 µM [activator, single point]"
Cc1ccccc1Cn1cc(NC(=O)c2cc(-c3ccco3)on2)cn1,–,"inconclusive: 29.1 µM [activator, single point]"
O=C(C=Cc1ccccc1Cl)c1ccccc1,–,"inconclusive: 23.1 µM [activator, single point]"
CC(=O)Nc1ccc(Sc2ccccc2C(=O)O)cc1,–,"inconclusive: 6.51 µM [activator, single point]"
O=C1/C(=C/c2ccccc2)NC(=S)N1C(c1ccccc1)c1ccccc1,–,"inconclusive: 2.91 µM [activator, single point]"
COc1ccc(/C=C/c2nnc(NC(=O)CSc3ccc(C)cc3)s2)cc1,–,"inconclusive: 13 µM [activator, single point]"
CC(C)(C)NC(=O)c1cccc(NC(=O)c2ccc3c(c2)C(=O)N(C(C)(C)C)C3=O)c1,inactive: 3.19%,–

Structure (SMILES),re-replication activation,Potency
Cc1ccc(S(=O)(=O)NCCCNS(=O)(=O)c2ccccc2Br)cc1,inactive: 10.1%,–
COc1ccc(Cl)cc1CC=NNC(=O)c1ccncc1,–,"inconclusive: 32.6 µM [activator, partial curve, poor fit]"
NNC(=O)c1cc(Cl)ccc1Cl,–,"inconclusive: 18.4 µM [activator, single point]"
O=S(=O)(c1ccc(F)cc1)N1CCN(c2ncnc3c2cnn3-c2ccccc2)CC1,–,"inconclusive: 29.1 µM [activator, single point]"
COc1ccccc1C(=O)N(C1=NC(C)CS1)c1ccc(Cl)cc1 (configuration not stated),–,"inconclusive: 2.06 µM [activator, partial curve, poor fit]"
Cc1cc(C(=O)N2CCN(c3ccccc3Cl)CC2)c(C)o1,–,"inconclusive: 29.1 µM [activator, single point]"
O=C(Cc1cccc([N+](=O)[O-])c1)Nc1cccc(C(=O)N2CCOCC2)c1,inactive: 0.735%,–
Cc1ccc(S(=O)(=O)N(CC(=O)Nc2cccnc2)c2cccc([N+](=O)[O-])c2)cc1,–,"inconclusive: 29.1 µM [activator, single point]"
CC(C)c1ccc(NC2CCCN(C(=O)CN3C(=O)CSC3=O)C2)cc1 (configuration not stated),–,"inconclusive: 25.9 µM [activator, single point]"
OCC1(Cc2ccccc2C(F)(F)F)CCN(Cc2cccc3cnccc23)CC1,–,"inconclusive: 0.164 µM [activator, full curve, poor fit]"
Cc1nc(C(=O)Nc2ccc(Cl)cc2)sc1C1(C)CC(c2ccccc2)=NO1 (configuration not stated),–,"inconclusive: 16.4 µM [activator, single point]"
Cc1cc(C(=O)CSc2nnc(-c3cccnc3)n2-c2ccccc2F)c(C)n1C,–,"inconclusive: 18.4 µM [activator, single point]"
CC(C)(C)C(=O)Oc1cccc(Nc2ncnc3ccccc23)c1,–,"inconclusive: 20.6 µM [activator, partial curve, poor fit]"
CC1(c2ccc3ccccc3c2)NC(=O)N(CC(=O)N2CCN(Cc3ccc(C#N)cc3)CC2)C1=O (configuration not stated),–,"inconclusive: 23.1 µM [activator, partial curve, poor fit]"
Oc1ccc(C=NNc2ccccn2)c(O)c1,–,"inconclusive: 2.31 µM [activator, full curve]"
CCCC(=O)NC1=C(Cl)C(=O)c2ccccc2C1=O,–,active: 6.51 µM
Cc1ccc(C(=O)/C=C/c2ccc(F)cc2)o1,–,"inconclusive: 32.6 µM [activator, single point]"
Cc1cc(/C=N/NC(=O)c2ccccc2F)c(C)n1-c1ccccc1,inactive: -5.63%,–
Cc1cc(/C=C(\C#N)C(=O)O)c(C)n1CCC(C)C,inactive: -16.5%,–
Cc1ccc(OCC(=O)NNC(=O)C2CC(=O)N(c3ccc4c(c3)OCCO4)C2)cc1 (configuration not stated),–,"inconclusive: 0.0052 µM [activator, full curve, poor fit]"
COc1cccc(CNc2cnc3ccccc3c2)c1O,inactive: -8.74%,–

# 9 of these compounds in another layout.
Structure (SMILES) | re-replication activation | Potency
Cc1ccccc1Cn1cc(NC(=O)c2cc(-c3ccco3)on2)cn1 | – | inconclusive: 29.1 µM [activator, single point]
O=C(C=Cc1ccccc1Cl)c1ccccc1 | – | inconclusive: 23.1 µM [activator, single point]
CC(=O)Nc1ccc(Sc2ccccc2C(=O)O)cc1 | – | inconclusive: 6.51 µM [activator, single point]
O=C1/C(=C/c2ccccc2)NC(=S)N1C(c1ccccc1)c1ccccc1 | – | inconclusive: 2.91 µM [activator, single point]
COc1ccc(/C=C/c2nnc(NC(=O)CSc3ccc(C)cc3)s2)cc1 | – | inconclusive: 13 µM [activator, single point]
CC(C)(C)NC(=O)c1cccc(NC(=O)c2ccc3c(c2)C(=O)N(C(C)(C)C)C3=O)c1 | inactive: 3.19% | –
Cc1ccc(S(=O)(=O)NCCCNS(=O)(=O)c2ccccc2Br)cc1 | inactive: 10.1% | –
COc1ccc(Cl)cc1CC=NNC(=O)c1ccncc1 | – | inconclusive: 32.6 µM [activator, partial curve, poor fit]
NNC(=O)c1cc(Cl)ccc1Cl | – | inconclusive: 18.4 µM [activator, single point]
